From patent US9133187B2, “Serine/threonine kinase inhibitors” (ARRAY BIOPHARMA INC., priority 2011, dated 2015) come the findings set out here.

The chains behind the UniProt entries cited, without tags or fusion partners. Residues count along the entry.
UniProt P28482, 8-360 limits assumed: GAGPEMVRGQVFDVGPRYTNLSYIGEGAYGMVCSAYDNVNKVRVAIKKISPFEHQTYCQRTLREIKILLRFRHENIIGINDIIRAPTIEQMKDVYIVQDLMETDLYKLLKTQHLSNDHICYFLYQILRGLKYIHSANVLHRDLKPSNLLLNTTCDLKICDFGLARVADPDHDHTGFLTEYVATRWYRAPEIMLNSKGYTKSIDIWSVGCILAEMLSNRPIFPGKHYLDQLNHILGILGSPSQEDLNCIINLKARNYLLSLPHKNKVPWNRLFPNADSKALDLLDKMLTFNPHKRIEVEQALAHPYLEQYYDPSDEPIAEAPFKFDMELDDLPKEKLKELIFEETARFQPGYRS

The match of structure and compound is tentative.

Assay [1] concerns the target human ERK-2 (Mitogen Activated Kinase 1) (Homo sapiens (Human), UniProt P28482). The assay can be described thus: ERK-2 Enzymatic Assay. In kind it is biochemical. To be noted: read-out: ERK Inhibition IC50; 5 nM ERK-2, 25 μM ATP, Omnia peptide S/T17.
Assay [2] concerns PMA-stimulated P90RSK(Ser380) phosphorylation in HepG2 cells. The assay can be described thus: Cellular P90RSK(Ser380) Phosphorylation Assay. Particulars: read-out: Cell Assay IC50, 1.5 h compound incubation, PMA stimulation, pP90RSK(Ser380) normalized to GAPDH.

In general, IC50 refers to the concentration needed to halve the response being measured. With `C[C@@H](Nc1ncc2c(n1)O[C@@H](C(=O)N[C@H](CO)c1ccc(OC(F)F)cc1)CC2)C1CC1`, the figures for the 50% inhibitory concentration (IC50) in assay [1] and in assay [2] were 109 nM and 1300 nM, respectively.
